{"source": "PubChem BioAssay AID1259424 (University of Nebraska Medical Center, 2018)", "screen": "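Rank knockdowns across the genome by resemblance to the KSR1 depletion profile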 (primary screen)", "system": "human HCT116 colon cancer cells", "reagents": "siRNA pool against human genes, 50 nM", "detection": "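Six signature mRNAs by branched-DNA multiplex assay, scaled to two housekeeping genes and non-targeting median, log2; matched to mean KSR1 knockdown profile by Pearson correlation and euclidean distance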", "direction": "mean correlation with KSR1 profile: higher = expression change more like KSR1 knockdown", "note": "In all, the deposit lists about 14,000 reagents; shown is a part drawn at random. 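Higher correlation or smaller distance means closer resemblance to KSR1 loss; control wells, including KSR1 knockdowns, recur on many plates.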 Not all columns of the deposit are shown. No sequences are given here. Not given: the time to read-out."}
{"gene": "TMT1A (thiol methyltransferase 1A)", "PubChem SID": "SID363998561", "mean correlation with KSR1 profile": 0.584}
{"gene": "BTRC", "PubChem SID": "SID363994994", "mean correlation with KSR1 profile": 0.761}
{"gene": "CEP104 (centrosomal protein 104)", "PubChem SID": "SID363999044", "mean correlation with KSR1 profile": -0.342}
{"gene": "FUNDC2 (FUN14 domain containing 2)", "PubChem SID": "SID364002659", "mean correlation with KSR1 profile": 0.114}
{"gene": "SNRPA (small nuclear ribonucleoprotein polypeptide A)", "PubChem SID": "SID363995566", "mean correlation with KSR1 profile": -0.292}

The list goes on, starting with the last 2 of the part before.
{"gene": "FUNDC2 (FUN14 domain containing 2)", "PubChem SID": "SID364002659", "mean correlation with KSR1 profile": 0.114}
{"gene": "SNRPA (small nuclear ribonucleoprotein polypeptide A)", "PubChem SID": "SID363995566", "mean correlation with KSR1 profile": -0.292}
{"gene": "YIPF2 (Yip1 domain family member 2)", "PubChem SID": "SID364002691", "mean correlation with KSR1 profile": -0.223}
{"gene": "PREX1", "PubChem SID": "SID364001851", "mean correlation with KSR1 profile": -0.66}
{"gene": "OR51E1 (olfactory receptor family 51 subfamily E member 1)", "PubChem SID": "SID364004719", "mean correlation with KSR1 profile": 0.916}
{"gene": "ATP11B (ATPase phospholipid transporting 11B (putative))", "PubChem SID": "SID364005267", "mean correlation with KSR1 profile": 0.23}
{"gene": "CAMTA2 (calmodulin binding transcription activator 2)", "PubChem SID": "SID363999300", "mean correlation with KSR1 profile": -0.00018}
{"gene": "DNM3 (dynamin 3)", "PubChem SID": "SID363999578", "mean correlation with KSR1 profile": -0.244}
{"gene": "CDC27 (cell division cycle 27)", "PubChem SID": "SID363992541", "mean correlation with KSR1 profile": 0.347}
